Results: publication PMC11189558, “Mutations found in cancer patients compromise DNA binding of the winged helix protein STK19”
Results are given in words; binding and its absence hold for the method and conditions named.

By UniProt entry, the sequences of proteins in these tests, tags left out. Where a name states a change or a piece, a line headed by the entry shows the natural chain unless it says otherwise. Chains listed by the source or under a name are the forms on record and can include a tag or linker. Residues count along the entry.
human STK19 (residues 31-254) C116S/C136S/C240S (P49842-4, form named): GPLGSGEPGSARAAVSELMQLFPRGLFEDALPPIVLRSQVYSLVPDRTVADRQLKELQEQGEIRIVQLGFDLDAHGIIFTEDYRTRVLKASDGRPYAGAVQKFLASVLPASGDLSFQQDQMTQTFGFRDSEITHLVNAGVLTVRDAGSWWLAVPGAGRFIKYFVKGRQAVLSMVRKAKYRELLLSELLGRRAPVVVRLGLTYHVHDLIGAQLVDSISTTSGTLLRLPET

Biological target: human STK19 (residues 31-254) C116S/C136S/C240S (human) (UniProt P49842)
Test: SEC; gel filtration profiles of the C116S/C136S/C240S protein compared with the wild-type protein; both purified

binding: no binding
Substance: human STK19 (residues 31-254) C116S/C136S/C240S (from UniProt P49842-4 31-254) (domain or fragment)
